# Measurements: the supplement of paper PMC4604168 (melanoma cell lines)
# Some of the results follow. Many values rest on one well or one pass, so single values are uncertain.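 Imaging used 1,536-well plates; nuclei positive for cleaved PARP by antibody were divided by total DNA-stained nuclei to yield the apoptosis fraction. Doses for screening kept most cells viable, and cell lines differ markedly in resting and induced cleaved-PARP levels.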
# Legend:
# Test in all cases: cleaved PARP positive nuclei fraction relative to DMSO control; melanoma cells; higher = more apoptosis
# Conditions in all cases: library dose: low library concentration; 72 h
# WM115 = tested on: WM115
# WM1716 = tested on: WM1716
# WM1745 = tested on: WM1745
# WM3526 = tested on: WM3526
# WM3619 = tested on: WM3619
# WM451Lu = tested on: WM451Lu
SMILES,cleaved PARP positive nuclei fraction (WM115),cleaved PARP positive nuclei fraction (WM1716),cleaved PARP positive nuclei fraction (WM1745),cleaved PARP positive nuclei fraction (WM3526),cleaved PARP positive nuclei fraction (WM3619),cleaved PARP positive nuclei fraction (WM451Lu)
"C[As](C)SC[C@H](NC(=O)CC[C@H](N)C(=O)O)C(=O)NCC(=O)O [Darinaparsin] + O=C(O)c1ccc(-c2c[nH]c3ncc(-c4ccccc4)cc23)cc1C1CCCC1 [GSK650394] (first compound 0.4 µM, partner dose 0.16 µM)",150%,109%,211%,146%,180%,54.5%
"C[C@]12O[C@H](C[C@]1(O)CO)n1c3ccccc3c3c4c(c5c6ccccc6n2c5c31)CNC4=O [Lestaurtinib] + Cc1cc([N+](=O)[O-])ccc1NS(=O)(=O)c1cc(Cl)ccc1Cl [FH535] (first compound 0.004 µM, partner dose 1 µM)",96.2%,204%,115%,81.6%,87.2%,92.4%
"C[C@]1(O)C[C@@H](c2nc(-c3ccc4ccc(-c5ccccc5)nc4c3)c3c(N)nccn32)C1 + C[As](C)SC[C@H](NC(=O)CC[C@H](N)C(=O)O)C(=O)NCC(=O)O [Darinaparsin] (first compound 0.4 µM, partner dose 0.4 µM)",155%,66.2%,114%,28.3%,84.8%,141%
"OCc1c[nH]c2ccccc12 [Indole-3-carbinol] + C[As](C)SC[C@H](NC(=O)CC[C@H](N)C(=O)O)C(=O)NCC(=O)O [Darinaparsin] (first compound 0.8 µM, partner dose 0.4 µM)",60.8%,99.2%,91.9%,359%,90.8%,45.3%
"C[C@]12O[C@H](C[C@]1(O)CO)n1c3ccccc3c3c4c(c5c6ccccc6n2c5c31)CNC4=O [Lestaurtinib] + O=C1NC(=O)/C(=C/c2ccc(-c3ccc(F)cc3O)o2)S1 [AS252424] (first compound 0.004 µM, partner dose 1 µM)",29.6%,183%,91.9%,157%,91%,35.6%
"C[As](C)SC[C@H](NC(=O)CC[C@H](N)C(=O)O)C(=O)NCC(=O)O [Darinaparsin] + CC1(C)NC(=O)N(c2ccc([N+](=O)[O-])c(C(F)(F)F)c2)C1=O [nilutamide] (first compound 0.4 µM, partner dose 1 µM)",160%,165%,549%,125%,82.5%,126%
"O=C(Nc1cc(C(F)(F)F)cc(C(F)(F)F)c1)c1cc(Cl)ccc1O + C/C(O)=C(\C#N)C(=O)Nc1cc(Br)ccc1Br [LFM-A13] (first compound 0.016 µM, partner dose 2 µM)",64.2%,109%,82.7%,95.8%,96.7%,48.8%
"Cn1cc(C2=C(c3cn(C4CCN(Cc5ccccn5)CC4)c4ccccc34)C(=O)NC2=O)c2ccccc21 [Enzastaurin] + C[C@]1(c2nc3c(C(N)=O)cccc3[nH]2)CCCN1 [Veliparib] (first compound 0.8 µM, partner dose 1.4 µM)",124%,83.5%,109%,73.9%,92.5%,861%
"C=C(c1ccc(C(=O)O)cc1)c1cc2c(cc1C)C(C)(C)CCC2(C)C [Bexarotene] + Cc1cc(SCc2sc(-c3ccc(C(F)(F)F)c(F)c3)nc2C)ccc1OCC(=O)O [GW0742] (first compound 2 µM, partner dose 2 µM)",38.1%,94.9%,91.8%,56.2%,87%,113%
"C=CCNC1=C2C[C@@H](C)C[C@H](OC)[C@H](O)[C@@H](C)/C=C(\C)[C@H](OC(N)=O)[C@@H](OC)/C=C\C=C(/C)C(=O)NC(=CC1=O)C2=O [Tanespimycin] + C[As](C)SC[C@H](NC(=O)CC[C@H](N)C(=O)O)C(=O)NCC(=O)O [Darinaparsin] (first compound 0.002 µM, partner dose 0.4 µM)",146%,214%,133%,86.8%,108%,148%
"N.N.[Cl][Pt][Cl] [cisplatin] + Nc1cccc2c1CN(C1CCC(=O)NC1=O)C2=O [lenalidomide] (first compound 1.6 µM, partner dose 1 µM)",67.8%,62.1%,98.7%,158%,109%,85.4%
"C[C@]1(O)C[C@@H](c2nc(-c3ccc4ccc(-c5ccccc5)nc4c3)c3c(N)nccn32)C1 + C/C(O)=C(\C#N)C(=O)Nc1cc(Br)ccc1Br [LFM-A13] (first compound 0.4 µM, partner dose 2 µM)",122%,114%,121%,183%,95.1%,70.5%
"Cc1ccc(NC(=O)c2cccc(N(C)C)c2)cc1NC(=O)c1ccc(O)cc1 + O=C(Oc1ccc([N+](=O)[O-])cc1)N1CCC(C(O)(c2ccc3c(c2)OCO3)c2ccc3c(c2)OCO3)CC1 [JZL184] (first compound 2 µM, partner dose 1 µM)",150%,118%,101%,73.5%,77.9%,92%
"C[As](C)SC[C@H](NC(=O)CC[C@H](N)C(=O)O)C(=O)NCC(=O)O [Darinaparsin] + Nc1cccc2c1CN(C1CCC(=O)NC1=O)C2=O [lenalidomide] (first compound 0.4 µM, partner dose 1 µM)",188%,126%,97.5%,40%,85.5%,77.8%
"CC(C)(C)c1cnc(CSc2cnc(NC(=O)C3CCNCC3)s2)o1 + C/C(O)=C(\C#N)C(=O)Nc1cc(Br)ccc1Br [LFM-A13] (first compound 0.01 µM, partner dose 2 µM)",478%,140%,128%,73.7%,79.5%,40.8%
"Cn1cc(C2=C(c3cn(C4CCN(Cc5ccccn5)CC4)c4ccccc34)C(=O)NC2=O)c2ccccc21 [Enzastaurin] + Cc1cc([N+](=O)[O-])ccc1NS(=O)(=O)c1cc(Cl)ccc1Cl [FH535] (first compound 0.8 µM, partner dose 1 µM)",65.4%,149%,92.2%,78.8%,108%,22.1%
"Cn1cc(C2=C(c3cn(C4CCN(Cc5ccccn5)CC4)c4ccccc34)C(=O)NC2=O)c2ccccc21 [Enzastaurin] + O=c1cc(-c2cccc3c2Sc2ccccc2S3)oc(N2CCOCC2)c1 [KU55933] (first compound 0.8 µM, partner dose 1 µM)",64.3%,154%,115%,33.8%,179%,161%
"Oc1cc(-c2nc(-c3ccccc3)[nH]c2-c2ccncc2)ccc1Cl + O=C(Oc1ccc([N+](=O)[O-])cc1)N1CCC(C(O)(c2ccc3c(c2)OCO3)c2ccc3c(c2)OCO3)CC1 [JZL184] (first compound 0.2 µM, partner dose 1 µM)",216%,90.4%,220%,142%,74.4%,25.1%
"Cn1cc(C2=C(c3cn(C4CCN(Cc5ccccn5)CC4)c4ccccc34)C(=O)NC2=O)c2ccccc21 [Enzastaurin] + CCCS(=O)(=O)Nc1ccc(F)c(C(=O)c2c[nH]c3ncc(Cl)cc23)c1F [PLX4720] (first compound 0.8 µM, partner dose 0.08 µM)",76.9%,219%,87.2%,143%,108%,26%
"N.N.[Cl][Pt][Cl] [cisplatin] + C/C(O)=C(\C#N)C(=O)Nc1cc(Br)ccc1Br [LFM-A13] (first compound 1.6 µM, partner dose 2 µM)",196%,109%,91.8%,89%,112%,208%
"C[C@]12O[C@H](C[C@]1(O)CO)n1c3ccccc3c3c4c(c5c6ccccc6n2c5c31)CNC4=O [Lestaurtinib] + CC(=O)O[C@@]12CO[C@@H]1C[C@H](O)[C@@]1(C)C(=O)[C@H](O)C3=C(C)[C@@H](OC(=O)[C@H](O)[C@@H](NC(=O)OC(C)(C)C)c4ccccc4)C[C@@](O)([C@@H](OC(=O)c4ccccc4)[C@H]21)C3(C)C [Docetaxel] (first compound 0.004 µM, partner dose 0.0001 µM)",151%,497%,141%,148%,130%,85%
"N.N.[Cl][Pt][Cl] [cisplatin] + N#Cc1c(O)c2c(-c3ccc(-c4ccccc4O)cc3)csc2[nH]c1=O [A769662] (first compound 1.6 µM, partner dose 2 µM)",26.6%,110%,89.9%,71.6%,85.3%,193%
"NC1(c2ccc(-c3nc4ccn5c(=O)[nH]nc5c4cc3-c3ccccc3)cc2)CCC1 + C[As](C)SC[C@H](NC(=O)CC[C@H](N)C(=O)O)C(=O)NCC(=O)O [Darinaparsin] (first compound 0.4 µM, partner dose 0.4 µM)",164%,80.9%,119%,53%,179%,157%
"OCCn1cc(-c2cnc3nnn(Cc4ccc5ncccc5c4)c3n2)cn1 + O=C(Oc1ccc([N+](=O)[O-])cc1)N1CCC(C(O)(c2ccc3c(c2)OCO3)c2ccc3c(c2)OCO3)CC1 [JZL184] (first compound 1 µM, partner dose 1 µM)",178%,81.4%,119%,359%,69.2%,77.9%
"COc1ccc(C2=N[C@@H](c3ccc(Cl)cc3)[C@@H](c3ccc(Cl)cc3)N2C(=O)N2CCNC(=O)C2)c(OC(C)C)c1 [Nutlin-3] + C[As](C)SC[C@H](NC(=O)CC[C@H](N)C(=O)O)C(=O)NCC(=O)O [Darinaparsin] (first compound 0.1 µM, partner dose 0.4 µM)",104%,171%,161%,35.6%,96%,162%

# Part of the list above, set out differently.
SMILES	cleaved PARP positive nuclei fraction (WM115)	cleaved PARP positive nuclei fraction (WM1716)	cleaved PARP positive nuclei fraction (WM1745)	cleaved PARP positive nuclei fraction (WM3526)	cleaved PARP positive nuclei fraction (WM3619)	cleaved PARP positive nuclei fraction (WM451Lu)
C[As](C)SC[C@H](NC(=O)CC[C@H](N)C(=O)O)C(=O)NCC(=O)O [Darinaparsin] + O=C(O)c1ccc(-c2c[nH]c3ncc(-c4ccccc4)cc23)cc1C1CCCC1 [GSK650394] (first compound 0.4 µM, partner dose 0.16 µM)	150%	109%	211%	146%	180%	54.5%
C[C@]12O[C@H](C[C@]1(O)CO)n1c3ccccc3c3c4c(c5c6ccccc6n2c5c31)CNC4=O [Lestaurtinib] + Cc1cc([N+](=O)[O-])ccc1NS(=O)(=O)c1cc(Cl)ccc1Cl [FH535] (first compound 0.004 µM, partner dose 1 µM)	96.2%	204%	115%	81.6%	87.2%	92.4%
